Laboratory results taken from patent US20190111164A1.
These are yes or no findings as the source states them, for the method shown. Some entries that bind do so weakly or less than the wild type.

Biological target: Muc1-1-5G peptide
Assay: ELISA, peptide coated on the plate

binding: binds
B1: 2F3 parent antibody (antibody, V domains shown)
VH: QITLRESGGGLVQPGGSLRLSCAASGFTFDSYAMSWVRQAPGKGLEWVSAISGSGDSTYYADSVKGRFSISRDNSKNTLYLQMNSLRAEDTAVYYCAIRREYSGYAPFDYWGQGTLVTVSS
VL: DIVMTQTPSSLSASVGDRVTITCRASQGISSWLAWYQQKPEKAPRSLIYAASSLQSGVPSRFSGSGSGTDFTLTISSLQPEDFATYYCQQYISYPYTFGQGTKLEIK
